Measurements published in PubChem BioAssay AID248 (DTP/NCI, 2004).
The list does not hold the whole screen: it is rich in T/C values a quarter to a half above the control, in often repeated tests (any T/C) and in doses without a T/C. Further doses and runs are listed elsewhere. T/C is the treated group as % of the vehicle group. Some entries give survivors of the animals treated and no T/C: the source files T/C as zero there, which appears to mark a toxic dose or a test without result, not a measured value. Some survivor counts are full or nearly so, which does not show that the dose was tolerated: survival well below the control is almost never listed, so the zero probably covers shortened survival too. Counts of survivors are from the toxicity check (mostly the fifth day) where no day follows; animals may have died later. Schedules are NCI's codes, read here as Q, the interval in days (D) or hours (H), X, the number of doses. Some structures stand for samples that the source files as different forms (salt, stereo form or complex); doses refer to the form tested. Some doses were run more than once; their values stand side by side, smallest first. Counts like (3×) say how often a value occurs here. For survival time, the PubChem record calls one and a half times the control and up active, and a quarter to a half above the control has no call in these data; cut-offs in other NCI protocols can differ. Some T/C values are followed by the survivors on the day toxicity was checked, most often the fifth; without a count, all were alive then.

Test system: L1210 leukemia ip in BDF1 mice, survival T/C
Assay: NCI In Vivo Anticancer Drug Screen. Data for tumor model L1210 Leukemia (intraperitoneal) in B6D2F1 (BDF1) mice
Conditions: T/C endpoint: mean survival time, higher T/C = longer survival
[1] = dose: 400.0 mg/kg/injection, schedule: Q01DX001 (ip), vehicle: saline
[2] = dose: 200.0 mg/kg/injection, schedule: Q04DX003 (ip), vehicle: Klucel (hydroxypropylcellulose) (HPC)
[3] = dose: 400.0 mg/kg/injection, schedule: Q04DX003 (ip), vehicle: Klucel (hydroxypropylcellulose) (HPC)
[4] = dose: 200.0 mg/kg/injection, schedule: Q01DX009 (ip), vehicle: Klucel (hydroxypropylcellulose) (HPC)
[5] = dose: 400.0 mg/kg/injection, schedule: Q01DX009 (ip), vehicle: Klucel (hydroxypropylcellulose) (HPC)
[6] = dose: 200.0 mg/kg/injection, schedule: Q04DX002 (ip), vehicle: Klucel (hydroxypropylcellulose) (HPC)

## Cc1ccc(S(=O)(=O)/C=C(/I)C#N)cc1
dose: 100.0 mg/kg/injection, schedule: Q01DX001 (ip), vehicle: saline
  survivor count: 0 of 6
dose: 200.0 mg/kg/injection, schedule: Q01DX001 (ip), vehicle: saline
  survivor count: 0 of 6
[1]
  survivor count: 0 of 6

## CC/C(C)=N\NC(=O)c1cccnc1
dose: 400.0 mg/kg/injection, schedule: Q01DX009 (ip), vehicle: saline
  survivor count: 0 of 6

## CN(Cc1cnc2nc(N)cc(N)c2n1)c1ccc(C(=O)NC(CCC(=O)O)C(=O)O)cc1 (stereo unspecified)
dose: 16.0 mg/kg/injection, schedule: Q01DX009 (ip), vehicle: other
  T/C: 125 % of control
dose: 25.0 mg/kg/injection, schedule: Q01DX009 (ip), vehicle: other
  T/C: 143 % of control
dose: 200.0 mg/kg/injection, schedule: Q01DX009 (ip), vehicle: other
  survivor count: 1 of 6
dose: 400.0 mg/kg/injection, schedule: Q01DX009 (ip), vehicle: other
  survivor count: 0 of 6

## CC(=O)OC(C)C1C2=C(C(=O)CC1(C)O)C(=O)c1c(ccc(-c3ccc4c(c3O)C(=O)C3=C(C4=O)C(C(C)OC(C)=O)C(C)(O)CC3=O)c1O)C2=O (stereo unspecified)
dose: 25.0 mg/kg/injection, schedule: Q01DX009 (ip), vehicle: saline with Tween-80
  survivor count: 2 of 6

## CC(=O)CC(=O)C(F)(F)F.CC(=O)CC(=O)C(F)(F)F.[O]=[V]
dose: 100.0 mg/kg/injection, schedule: Q04DX003 (ip), vehicle: Klucel (hydroxypropylcellulose) (HPC)
  survivor count: 5 of 6
[2]
  survivor count: 0 of 6
[3]
  survivor count: 0 of 6

## Cc1c(N2CCCCC2)[nH]c2ccccc12
[4]
  survivor count: 6 of 6
[5]
  survivor count: 6 of 6

## Cc1ccc(NC(=O)c2c(Cl)c(Cl)c(Cl)c(Cl)c2C(=O)O)cc1Cl
[5]
  survivor count: 4 of 6

## CCOC(=O)C(Cc1ccc(O)c(N(CCO)CCO)c1)N1C(=O)c2ccccc2C1=O (stereo unspecified)
[1]
  survivor count: 2 of 4

## O=S(=O)(O)c1ccc(N=Nc2ccc(O)cc2)cc1
dose: 200.0 mg/kg/injection, schedule: Q04DX003 (ip), vehicle: saline with Tween-80
  survivor count: 2 of 6
[3]
  survivor count: 4 of 6
dose: 400.0 mg/kg/injection, schedule: Q04DX003 (ip), vehicle: saline with Tween-80
  survivor count: 0 of 6

## Cc1ccc(NC(=O)NCCCCCCNC(=O)Nc2ccc(C)c(Cl)c2)cc1Cl
dose: 100.0 mg/kg/injection, schedule: Q01DX009 (ip), vehicle: saline with Tween-80
  survivor count: 6 of 6
dose: 400.0 mg/kg/injection, schedule: Q01DX009 (ip), vehicle: saline with Tween-80
  survivor count: 5 of 6

## COc1ccc(CN(CCO)S(C)(=O)=O)cc1
dose: 100.0 mg/kg/injection, schedule: Q01DX009 (ip), vehicle: saline
  survivor count: 6 of 6

## NC(N)=NC(N)=Nc1cccc(Cl)c1
dose: 100.0 mg/kg/injection, schedule: Q01DX009 (ip), vehicle: Klucel (hydroxypropylcellulose) (HPC)
  T/C: 97, 104, 108, 118 % of control
dose: 100.0 mg/kg/injection, schedule: Q04DX002 (ip), vehicle: Klucel (hydroxypropylcellulose) (HPC), evaluated on day 20
  T/C: 97 % of control
dose: 100.0 mg/kg/injection, schedule: Q04DX002 (ip), vehicle: Klucel (hydroxypropylcellulose) (HPC), evaluated on day 30
  T/C: 97, 110, 139 % of control [2 of 3 alive]
[4]
  survivor count: 0 of 3 and 2 of 6
[6]
  T/C: 89, 91, 106 % of control [4 of 6 alive]
  survivor count: 0 of 3
[2]
  survivor count: 3 of 6
dose: 400.0 mg/kg/injection, schedule: Q01DX001 (ip), vehicle: Klucel (hydroxypropylcellulose) (HPC)
  survivor count: 1 of 6
[5]
  survivor count: 0 of 3 and 0 of 6
dose: 400.0 mg/kg/injection, schedule: Q04DX002 (ip), vehicle: Klucel (hydroxypropylcellulose) (HPC)
  survivor count: 0 of 3 (2×), 0 of 6, 1 of 6
[3]
  survivor count: 0 of 6

## CCN(CCc1ccc(N)cc1)C(Cc1ccccc1)c1cccc(OC)c1 (stereo unspecified)
dose: 100.0 mg/kg/injection, schedule: Q04DX003 (ip), vehicle: saline
  survivor count: 5 of 6
dose: 200.0 mg/kg/injection, schedule: Q04DX003 (ip), vehicle: saline
  survivor count: 1 of 6
dose: 400.0 mg/kg/injection, schedule: Q04DX003 (ip), vehicle: saline
  survivor count: 0 of 6
